Measurements taken from patent US20050042631A1 (US Dept. of Health and Human Services, published 2005).

Molecular target: T1, PC4 (positive cofactor 4), native, in the P11/0.85 M KCl fraction of HeLa cell nuclear extract (human, UniProt P53999 2-127)
T1 construct: Renatured on PVDF membrane after SDS-PAGE; also called 20 kDa protein
Test: Farwestern blot of HeLa nuclear extract P11 fractions

B1: GST-K-p52 (other)
chain: MTRDFKPGDLIFAKMKGYPHWPARVDEVPDGAVKPPTNKLPIFFFGTHETAFLGPKDIFPYSENKEKYGKPNKRKGFNEGLWEIDNNPKVKFSSQQAATKQSNASSDVEVEEKETSVSKEDTDHEEKASNEDVTKAVDITTPKAARRGRKRKAEKQVETEEAGVVTTATASVNLKVSPKRGRPAATEVKIPKPRGRPKMVKQPCPSESDIITEEDKSKKKGQEGKQPKKQPKKDEEGQKEEDKPRKEPDKKEGKKEVESKRKNLAKTGVTSTSDSEEEGDDQEGEKKRKGGRNFQTAHRRNMLKGQHEKEAADRKRKQEEQMETEHQTTCNLQ
modifications: 32P-labeled by HMK where used as Farwestern probe
notes: The Nru I-EcoR V fragment of p52 cDNA was put in pGEX-2T(K); also called GST-p52; p52 probe; not shown: glutathione-S-transferase from the pGEX-2T(K) vector; heart muscle kinase (K) site and vector linker
  binding result: binds
